Patent EP4831180A1, “NOVEL KINASE INHIBITOR” (dated 2026)
The match of structure and compound is tentative.

Protein sequences, listed by entry. Tags and fused reporters are not part of them. Residues count along the entry.
UniProt Q9UM73, 19-1620 I1171N/D1203N limits assumed: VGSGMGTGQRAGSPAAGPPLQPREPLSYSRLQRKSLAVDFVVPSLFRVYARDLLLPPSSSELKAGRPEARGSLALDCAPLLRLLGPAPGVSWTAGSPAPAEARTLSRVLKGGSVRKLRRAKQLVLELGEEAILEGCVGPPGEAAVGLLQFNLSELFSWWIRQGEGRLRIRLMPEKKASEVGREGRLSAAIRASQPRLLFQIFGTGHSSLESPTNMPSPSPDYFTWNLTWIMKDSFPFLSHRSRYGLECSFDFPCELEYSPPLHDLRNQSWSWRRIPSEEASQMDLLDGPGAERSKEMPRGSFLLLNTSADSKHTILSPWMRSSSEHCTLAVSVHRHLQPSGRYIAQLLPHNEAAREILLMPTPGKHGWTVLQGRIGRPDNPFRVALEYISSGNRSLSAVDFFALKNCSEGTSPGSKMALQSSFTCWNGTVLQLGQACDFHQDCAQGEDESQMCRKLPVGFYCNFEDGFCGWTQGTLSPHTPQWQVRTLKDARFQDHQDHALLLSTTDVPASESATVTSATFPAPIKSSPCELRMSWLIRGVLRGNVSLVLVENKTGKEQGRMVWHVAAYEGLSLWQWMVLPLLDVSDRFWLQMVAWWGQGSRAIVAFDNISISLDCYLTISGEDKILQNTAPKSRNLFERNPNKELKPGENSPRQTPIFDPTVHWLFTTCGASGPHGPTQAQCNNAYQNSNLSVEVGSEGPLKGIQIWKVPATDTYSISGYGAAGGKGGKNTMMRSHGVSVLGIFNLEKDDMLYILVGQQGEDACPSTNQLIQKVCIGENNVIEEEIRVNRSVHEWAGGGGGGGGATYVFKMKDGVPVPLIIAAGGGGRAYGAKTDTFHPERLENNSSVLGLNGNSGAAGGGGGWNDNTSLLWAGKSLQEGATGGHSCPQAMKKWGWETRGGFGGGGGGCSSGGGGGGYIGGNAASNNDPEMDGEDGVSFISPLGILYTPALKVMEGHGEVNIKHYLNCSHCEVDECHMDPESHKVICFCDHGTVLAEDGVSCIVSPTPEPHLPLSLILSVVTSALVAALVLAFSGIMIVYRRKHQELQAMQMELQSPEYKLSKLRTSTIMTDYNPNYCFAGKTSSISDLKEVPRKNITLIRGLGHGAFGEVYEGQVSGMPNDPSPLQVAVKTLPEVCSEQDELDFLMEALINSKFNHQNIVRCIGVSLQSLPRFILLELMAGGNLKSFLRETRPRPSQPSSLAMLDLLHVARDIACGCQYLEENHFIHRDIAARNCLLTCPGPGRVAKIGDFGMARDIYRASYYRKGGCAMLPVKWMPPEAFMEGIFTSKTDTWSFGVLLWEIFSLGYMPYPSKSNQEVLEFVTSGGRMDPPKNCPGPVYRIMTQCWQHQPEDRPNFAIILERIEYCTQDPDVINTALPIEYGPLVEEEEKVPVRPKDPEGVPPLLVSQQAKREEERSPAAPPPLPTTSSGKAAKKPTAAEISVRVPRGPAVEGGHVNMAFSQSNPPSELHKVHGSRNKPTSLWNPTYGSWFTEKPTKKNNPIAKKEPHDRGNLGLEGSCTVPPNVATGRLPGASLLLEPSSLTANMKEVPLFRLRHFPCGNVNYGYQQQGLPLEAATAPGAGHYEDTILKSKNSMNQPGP
UniProt Q9UM73, 19-1620 L1196M/G1202R limits assumed: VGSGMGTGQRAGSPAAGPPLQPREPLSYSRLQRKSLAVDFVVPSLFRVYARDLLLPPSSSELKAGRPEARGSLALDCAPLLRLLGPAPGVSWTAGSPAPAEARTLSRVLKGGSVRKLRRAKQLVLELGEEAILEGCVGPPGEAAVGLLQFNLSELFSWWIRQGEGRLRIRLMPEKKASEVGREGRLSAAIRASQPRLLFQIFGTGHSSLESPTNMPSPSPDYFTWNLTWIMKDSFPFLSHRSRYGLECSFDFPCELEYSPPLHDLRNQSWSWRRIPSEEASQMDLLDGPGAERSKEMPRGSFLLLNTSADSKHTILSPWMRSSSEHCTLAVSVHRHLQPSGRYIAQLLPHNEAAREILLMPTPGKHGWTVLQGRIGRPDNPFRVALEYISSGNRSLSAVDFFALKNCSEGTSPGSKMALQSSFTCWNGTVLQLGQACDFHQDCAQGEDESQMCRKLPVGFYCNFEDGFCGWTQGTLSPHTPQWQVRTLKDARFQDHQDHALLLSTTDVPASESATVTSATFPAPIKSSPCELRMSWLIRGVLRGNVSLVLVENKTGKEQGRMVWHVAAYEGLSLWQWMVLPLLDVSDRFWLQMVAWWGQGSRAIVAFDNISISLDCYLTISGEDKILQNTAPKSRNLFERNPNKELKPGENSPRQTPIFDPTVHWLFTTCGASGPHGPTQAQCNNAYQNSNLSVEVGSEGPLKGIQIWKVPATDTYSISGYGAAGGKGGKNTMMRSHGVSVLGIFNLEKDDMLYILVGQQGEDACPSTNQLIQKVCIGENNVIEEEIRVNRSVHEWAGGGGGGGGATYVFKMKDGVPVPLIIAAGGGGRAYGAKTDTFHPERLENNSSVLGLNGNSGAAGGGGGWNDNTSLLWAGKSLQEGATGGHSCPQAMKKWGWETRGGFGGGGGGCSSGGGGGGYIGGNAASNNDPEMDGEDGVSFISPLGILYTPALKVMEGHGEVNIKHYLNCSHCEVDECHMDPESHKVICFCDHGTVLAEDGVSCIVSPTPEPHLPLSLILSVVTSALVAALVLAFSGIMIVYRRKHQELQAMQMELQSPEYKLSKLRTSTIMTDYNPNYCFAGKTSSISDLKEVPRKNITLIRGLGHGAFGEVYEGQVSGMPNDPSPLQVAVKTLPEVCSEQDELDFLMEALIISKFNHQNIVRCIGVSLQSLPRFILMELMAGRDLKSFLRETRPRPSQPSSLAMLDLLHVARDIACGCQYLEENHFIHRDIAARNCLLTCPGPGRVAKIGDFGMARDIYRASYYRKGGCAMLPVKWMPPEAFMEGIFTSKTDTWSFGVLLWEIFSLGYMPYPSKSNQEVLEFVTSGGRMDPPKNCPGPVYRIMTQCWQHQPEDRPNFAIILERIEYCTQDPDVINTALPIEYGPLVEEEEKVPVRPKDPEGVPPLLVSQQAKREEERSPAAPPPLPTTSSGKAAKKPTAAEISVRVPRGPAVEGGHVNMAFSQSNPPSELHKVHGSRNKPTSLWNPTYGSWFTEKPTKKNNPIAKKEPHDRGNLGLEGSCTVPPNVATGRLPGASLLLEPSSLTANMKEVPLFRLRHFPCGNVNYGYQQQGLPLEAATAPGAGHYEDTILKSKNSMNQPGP

How the values were obtained:
[1] = system: Baf3 EML4-ALK V1^G1202R/L1196M cells; conditions: read-out: BaF3 EML4-ALK^G1102R/L1196M, IC50; 3 days incubation, Cell-Titer Glo
[2] = system: Baf3 EML4-ALK V1^I1171N/D1203N cells; conditions: read-out: BaF3 EML4-ALK^I1171N/D1203N IC50; 3 days incubation, Cell-Titer Glo
His-ALK^G1202R/L1196M = His-ALK^G1202R/L1196M (Homo sapiens, UniProt Q9UM73, G1202R/L1196M); assay: ALK G1202R/L1196M compound mutant kinase inhibitory activity assay (HTRF); conditions: read-out: ALK^G1202R/L1196M Enzyme, IC50, ATP 4 µM, enzyme 0.5 nM, 1 hour at 23 °C
His-ALK^I1171N/D1203N = His-ALK^I1171N/D1203N (Homo sapiens, UniProt Q9UM73, D1203N/I1171N); assay: ALK I1171N/D1203N compound mutant kinase inhibitory activity assay (HTRF); conditions: read-out: ALK^I1171N/D1203N Enzyme, IC50, ATP 1 µM, enzyme 0.3 nM, 1 hour at 23 °C

For `CCn1nc(C#C[C@H](C)N)c2c1-c1cnc(N)c(c1)O[C@H](C)c1cc(F)ccc1-c1nn(C)cc1C2`, which IC50 [1] is on record?
The IC50 was < 10 nM.

What about the IC50 [2] of the same compound?
The IC50 was < 10 nM.

And the IC50 (His-ALK^G1202R/L1196M)?
Its IC50 is < 5 nM.

What about the IC50 (His-ALK^I1171N/D1203N) of the same compound?
Its IC50 is < 5 nM.
